These results are taken from US7662915 (dated 2010).

The nature of the data set: general procedure: Fmoc solid-phase peptide synthesis; Link-amide resin; 2-CLTR (2-chlorotrityl resin); Bop/HOBt/DIPEA. The note with it: HPLC (Waters Alliance, Nova-Pak C18, 0.1% TFA water/AcCN gradient); for final HPLC purity: whole synthesis, scale of the general procedure 1.0 mmol.

Take “Fmoc-Cys^1-Ser-Asn-Leu-Ser-Thr-Cys^7-Val-Leu-Gly^10-Lys(Fmoc)-Leu-Ser-Gln-Glu-Leu-His-Lys-Leu-Gln^20-Thr-Tyr-Pro-Arg-Thr-Asn-Thr-Gly-Ser-Gly^30-Thr-Pro-NH2(SEQ ID NO.: 1)(1,7-disulfide bond)”: the “final HPLC purity” value turned out to be 98% up.

For the substance 1,12-diNsc-GRF(1-29), the “final HPLC purity” value was found to be 98% up.

In the case of 21-Nsc-GRF(1-29), the “final HPLC purity” value is on record as 98% up.

Consider “H-Cys^1-Ser-Asn-Leu-Ser-Thr-Cys^7-Val-Leu-Gly^10-Lys(Fmoc)-Leu-Ser-Gln -Glu-Leu-His-Lys-Leu-Gln^20-Thr-Tyr-Pro-Arg-Thr-Asn-Thr-Gly-Ser-Gly^30-Thr-Pro-NH2 (1,7-disulfide bond)(SEQ ID NO:1)”, for which the “final HPLC purity” value amounted to 98% up.

Regarding “Fmoc-Cys^1-Ser-Asn-Leu-Ser-Thr-Cys^7-Val-Leu-Gly^10-Lys-Leu-Ser-Gln-Glu-Leu-His-Lys(Fmoc)-Leu-Gln^20-Thr-Tyr-Pro-Arg-Thr-Asn-Thr-Gly-Ser-Gly^30 -Thr-Pro-NH2 (1,7-disulfide bond)(SEQ ID NO.: 1)”, the “final HPLC purity” value is 97% up (run 1) and 98% up (run 2).

For the substance “Boc-Tyr-Ala-Asp-Ala-Ile-Phe-Thr-Asn-Ser-Tyr^10-Arg-Lys(Boc)-Val-Leu-Gly-Gln-Leu-Ser-Ala-Arg^20-Lys-Leu-Leu-Gln-Asp-Ile-Met-Ser-Arg-NH2 (SEQ ID NO.: 2)”, the “crude HPLC purity” value (late stage modification step) is reported as 92% up.

For the substance “Fmoc-Tyr-Ala-Asp-Ala-Ile-Phe-Thr-Asn-Ser-Tyr^10-Arg-Lys-Val-Leu-Gly-Gln-Leu-Ser-Ala-Arg^20-Lys(Fmoc)-Leu-Leu-Gln-Asp-Ile-Met-Ser-Arg-NH2(SEQ ID NO.: 2)”, the “final HPLC purity” value is 98% up.

Take “H-Tyr-Ala-Asp-Ala-Ile-Phe-Thr-Asn-Ser-Tyr^10-Arg-Lys(Fmoc)-Val-Leu-Gly-Gln-Leu-Ser-Ala-Arg^20-Lys(Fmoc)-Leu-Leu-Gln-Asp-Ile-Met-Ser-Arg-NH2(SEQ ID NO.: 2)”: the “final HPLC purity” value is given as 96% up.
